Measured data: PubChem BioAssay AID686943 (Drosophila RNAi Screening Center, 2013)

- Purpose: 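Search across the genome for regulators of signalling from receptor tyrosine kinase to ERK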 (primary screen)
- Cells: Drosophila S2R+ haemocyte-like cells expressing YFP-tagged ERK (Rolled)
- Reagent: long dsRNA against Drosophila genes
- Conditions: insulin stimulation versus unstimulated cells; dose and duration not given
- Measurement: 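Antibody staining for doubly phosphorylated ERK divided by ERK-YFP signal, as plate z-scores, in insulin-treated and untreated cells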
- Reading the numbers: replicate 1, z-score of dpERK with insulin and replicate 2, z-score of dpERK with insulin: higher = more active ERK per ERK-YFP after insulin; replicate 1, z-score of dpERK under basal conditions: higher = more basal active ERK per ERK-YFP; replicate 1, z-score of ERK-YFP with insulin: higher = more YFP-tagged ERK signal
In all, the deposit lists about 23,000 reagents; below is an unselected part of those that have a named target and a result. 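Extra replicates exist only for a retested subset of genes; insulin dose and duration not given; both raised and lowered dpERK matter.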 Names joined by + are all predicted targets of the reagent. Not stated in the record: the amount of reagent, the time to read-out.

The first 6 records as a preview:
| predicted target | DRSC id | replicate 1, z-score of dpERK with insulin | replicate 2, z-score of dpERK with insulin | replicate 1, z-score of dpERK under basal conditions | replicate 1, z-score of ERK-YFP with insulin |
| --- | --- | --- | --- | --- | --- |
| CR18275 + CR18166 + CG32817 | DRSC17249 | 2.05 | -0.1 | -0.38 | -0.65 |
| trus (toys are us) | DRSC15772 | 0.17 | 0.04 | 0.5 | -1.91 |
| psh (persephone) | DRSC19990 | -0.87 | -0.77 | 0.12 | 0.09 |
| CG33341 | DRSC22887 | -1.2 | -0.24 | -1.8 | 0.9 |
| Dyrk3 (Dual-specificity tyrosine phosphorylation-regulated kinase 3) | DRSC21055 | -0.17 | -0.12 | -0.61 | 0.18 |
| Tmem214 (Transmembrane protein 214) | DRSC02924 | 1.07 | 0.92 | 0.06 | 0.48 |

Main list, from the first entry:
| predicted target | DRSC id | replicate 1, z-score of dpERK with insulin | replicate 2, z-score of dpERK with insulin | replicate 1, z-score of dpERK under basal conditions | replicate 1, z-score of ERK-YFP with insulin |
| --- | --- | --- | --- | --- | --- |
| CR18275 + CR18166 + CG32817 | DRSC17249 | 2.05 | -0.1 | -0.38 | -0.65 |
| trus (toys are us) | DRSC15772 | 0.17 | 0.04 | 0.5 | -1.91 |
| psh (persephone) | DRSC19990 | -0.87 | -0.77 | 0.12 | 0.09 |
| CG33341 | DRSC22887 | -1.2 | -0.24 | -1.8 | 0.9 |
| Dyrk3 (Dual-specificity tyrosine phosphorylation-regulated kinase 3) | DRSC21055 | -0.17 | -0.12 | -0.61 | 0.18 |
| Tmem214 (Transmembrane protein 214) | DRSC02924 | 1.07 | 0.92 | 0.06 | 0.48 |
| Tmem214 (Transmembrane protein 214) | DRSC02925 | 0.82 | 0.74 | 0.3 | -0.78 |
| CG15728 | DRSC19694 | 1.43 | 0.41 | 0.01 | -0.42 |
| CG15728 | DRSC22868 | -0.68 | 0.03 | 0.8 | 1.15 |
| Obp56g (Odorant-binding protein 56g) | DRSC06432 | -0.3 | 0.07 | -1.84 | -0.52 |
| CG30114 | DRSC05707 | 0.6 | 0.9 | 0.78 | -0.06 |
| CG34324 | DRSC19502 | -0.97 | -0.19 | 1.35 | 0.45 |
| CG15143 | DRSC02444 | 0.12 | 0.34 | 0.99 | -0.28 |
| Sec24AB (Secretory 24AB) | DRSC06478 | 0.57 | 0.45 | -0.12 | 0.27 |
| U2af50 (U2 small nuclear riboprotein auxiliary factor 50) | DRSC20297 | -1.55 | -3.07 | -0.18 | 5.52 |
| U2af50 (U2 small nuclear riboprotein auxiliary factor 50) | DRSC22867 | -2.01 | -2.35 | -2.74 | 4.56 |
| RpS30 (Ribosomal protein S30) | DRSC15119 | -1.15 | -0.55 | -0.52 | -4.85 |
| Slc25A46a | DRSC20125 | 0.34 | 0.94 | 0.17 | 0.08 |
| RpL13A (Ribosomal protein L13A) | DRSC12265 | -3.36 | 2.33 | 2.1 | -2.22 |
| Acsf3 (Acyl-CoA synthetase family member 3) | DRSC18146 | -0.71 | 1.58 | -0.74 | 0.73 |
| Dgkepsilon (Diacyl glycerol kinase epsilon) | DRSC07399 | 0.17 | 0.94 | 0.07 | 0.87 |
| d-cup (davis-cup) | DRSC14846 | -0.32 | 0.03 | 0.42 | -0.12 |
| ORMDL (Orosomucoid 1-like) | DRSC11737 | 0.31 | -0.53 | 0.64 | -0.49 |
| Nhe2 (Na[+]/H[+] hydrogen exchanger 2) | DRSC03172 | -0.48 | 0.45 | 0.91 | 0.02 |
| Nhe2 (Na[+]/H[+] hydrogen exchanger 2) | DRSC03377 | -1.74 | -0.93 | -0.8 | 0.8 |
| LBR (Lamin B receptor) | DRSC04298 | 0.64 | 0.14 | -0.99 | -0.08 |
| CG10164 | DRSC14197 | 0.24 | 0.11 | -0.96 | 0.14 |
| Lcp65Ad | DRSC11211 | 0.34 | 0.85 | -0.87 | 0.47 |
| CG43138 | DRSC17527 | -0.21 | 0.1 | -1.69 | -0.38 |
| Rab9 | DRSC03281 | 0.87 | 1.21 | -0.32 | 0 |
| CG16957 | DRSC02545 | 0.27 | 0.77 | 0.87 | 0.95 |
| Trf4-1 (Topoisomerase related function 4-1) | DRSC17775 | 0.99 | 0.37 | -0.95 | 0.15 |
| amos (absent MD neurons and olfactory sensilla) | DRSC03484 | -0.05 | -0.57 | -0.09 | 0.05 |
| rtp (retinophilin) | DRSC12132 | -0.26 | 0.4 | -0.18 | 0.29 |
| comr (cookie monster) | DRSC04138 | 0.24 | 0.32 | 0.05 | 0.34 |
| fdl (fused lobes) | DRSC07279 | 0.29 | -0.03 | 0.14 | 0.09 |
| CG31493 | DRSC12583 | -0.54 | -0.41 | -0.58 | 1.42 |
| CG6893 | DRSC10742 | -0.73 | -0.65 | -0.14 | 0.49 |
| CG17127 | DRSC02581 | 0.58 | 0.46 | 0.1 | -0.04 |
| Ms (Myosuppressin) | DRSC16041 | 0.11 | -0.16 | -1.05 | 0.09 |
| Rab9Db + Rab9D + Rab9Fa + 1 more | DRSC17662 | -0.17 | 0.01 | -0.42 | -0.45 |
| l(2)09851 (lethal (2) 09851) | DRSC04858 | 1.36 | 0.42 | -0.91 | -0.88 |
| CG9826 | DRSC04570 | 0.18 | 0.19 | 0.59 | 0.61 |
| Gyf (Gigyf) | DRSC17202 | 0.06 | -0.1 | -0.49 | 0.47 |
| CG9521 | DRSC20196 | -0.02 | 0.37 | 0.25 | 0.32 |
| Tbc1d22 (TBC1 domain family member 22) | DRSC15867 | 0.39 | 0.11 | -0.14 | 0.04 |
| sfl (sulfateless) | DRSC08828 | 0.04 | 0.39 | 0.54 | 0.44 |
| sfl (sulfateless) | DRSC08830 | 1.06 | 1.21 | 0.13 | -0.28 |
| mRpS21 (mitochondrial ribosomal protein S21) | DRSC12965 | -0.48 | -0.42 | -1.73 | 0.49 |
| mRpS21 (mitochondrial ribosomal protein S21) | DRSC21357 | 0.8 | -0.15 | -0.2 | 0.29 |
| Gyc76C + CG42637 | DRSC11180 | -0.72 | -0.56 | 0.78 | 1.4 |
| slmo + CG34179 | DRSC03143 | -1.39 | -0.75 | -0.81 | 0.34 |
| CG5391 | DRSC15790 | 1.09 | -0.11 | 0.36 | -0.64 |
| CG8569 | DRSC07214 | 0.4 | 0.03 | -0.18 | -0.63 |
| Teh4 (tipE homolog 4) | DRSC08457 | 0.23 | -0.17 | 2.23 | 0.35 |
| Nepl13 (Neprilysin-like 13) | DRSC15632 | -0.07 | -0.11 | 0.55 | 0.18 |
| Atpalpha (Na pump alpha subunit) | DRSC14119 | 0.01 | 0.33 | 1.38 | 0.18 |
| rpr (reaper) | DRSC11390 | 1.69 | -0.17 | 2.88 | 0.23 |
| CG34187 (retired record) + Trpm | DRSC05543 | 1.19 | 0.23 | 1.46 | -0.87 |
| eEF1gamma (eukaryotic translation elongation factor 1 gamma) | DRSC16659 | -1.45 | 0 | -0.73 | -3.94 |
| lic (licorne) | DRSC20347 | 0.32 | 1.4 | 0.73 | 0.48 |
| CG7884 | DRSC20065 | 0.43 | 1.09 | 0.03 | -0.13 |
| CG40191 | DRSC21041 | -0.13 | 0.08 | -2.47 | 0.15 |
| Saf-B (Scaffold attachment factor B) | DRSC16167 | 4.26 | 2.39 | 3.93 | -3.22 |
| Unc-76 (Uncoordinated 76) | DRSC18193 | 0.64 | 0.6 | 0.72 | 0.77 |
| Unc-76 (Uncoordinated 76) | DRSC18560 | 0.02 | -0.04 | 1.06 | 0.3 |
| CG30031 + deltaTry + CG30025 + 1 more | DRSC21262 | -1.16 | 0.09 | -0.4 | 0.82 |
| zetaCOP (Coat Protein (coatomer) zeta) | DRSC11412 | 0.27 | 1.01 | -0.33 | -1.22 |
| CG2186 | DRSC19838 | -0.9 | -0.78 | 1.03 | 1.37 |
| Su(H) (Suppressor of Hairless) | DRSC03445 | 0.23 | 0.38 | -0.76 | -0.48 |
| Sf3b6 (Splicing factor 3b subunit 6) | DRSC09972 | 1.43 | 1.41 | 11.5 | -0.01 |
| CG30002 | DRSC05182 | -0.26 | -0.28 | -0.56 | 0.32 |
| CG30158 | DRSC04956 | -0.44 | 0.03 | 0.04 | 0.37 |
| CG30158 | DRSC04974 | 0.06 | 0.81 | 0.67 | -0.09 |
| CG30158 | DRSC04975 | 0.35 | 0.24 | -0.36 | 0.49 |
| CG30158 | DRSC05012 | -0.01 | 1.35 | 0.8 | 0 |
